Reference: patent US20260042731A1, “(2,4-DICHLOROPHENOXY)ACETIC ACID ANALOGS” (CORTEVA AGRISCIENCE LLC, priority 2022, published 2026)
Values joined by “and” are separate entries in the source; they are usually repeats but may differ in a detail not shown here. Identical values can stand only once. The name of at least one read-out is uncertain.

Experiments:
Assay in all cases: Greenhouse post-emergence mixture trials, percent visual control
Type in all cases: in vivo
Tall Waterhemp (AMATA) = test system: Tall Waterhemp (AMATA)
Corn (ZEAMX) = test system: Corn (ZEAMX)
Horseweed (ERICA) = details: 21 DAA
[1] = test system: Common Lambsquarters (CHEAL); details: 21 DAA
Velvetleaf (ABUTH) = test system: Velvetleaf (ABUTH)
[2] = 21 DAA, compound 560 g ae/ha + Sulfentrazone 347 g ai/ha, Trial Bridge 3
[3] = 21 DAA, compound 560 g ae/ha, no mixing partner, Trial Bridge 3
[4] = 21 DAA, compound 1120 g ae/ha, no mixing partner, Trial Bridge 3
[5] = Trial Bridge 1, 21 DAA, compound 560 g ae/ha + Arylex 5 g ai or ae/ha
[6] = Trial Bridge 1, 21 DAA, compound 560 g ae/ha + Glufosinate 600 g ai or ae/ha
[7] = Trial Bridge 1, 21 DAA, compound 560 g ae/ha + Glyphosate 1120 g ai or ae/ha
[8] = Trial Bridge 1, 21 DAA, compound 560 g ae/ha + Mesotrione 150 g ai or ae/ha
[9] = Trial Bridge 1, 21 DAA, compound 560 g ae/ha + diclosulam 35 g ai or ae/ha
[10] = Trial Bridge 1, 21 DAA, compound 1120 g ae/ha + Glufosinate 600 g ai or ae/ha
[11] = Trial Bridge 1, 21 DAA, compound 1120 g ae/ha + Glyphosate 1120 g ai or ae/ha
[12] = Trial Bridge 1, 21 DAA, compound 1120 g ae/ha + diclosulam 35 g ai or ae/ha
[13] = Trial Bridge 2, 21 DAA, compound 560 g ae/ha + Trifludimoxazin 12.5 g ai or ae/ha
[14] = Trial Bridge 2, 21 DAA, compound 560 g ae/ha, no mixing partner
[15] = Trial Bridge 2, compound 560 g ae/ha, no mixing partner
[16] = Trial Bridge 3, compound 560 g ae/ha, no mixing partner

## O=C(COc1ccc(Cl)cc1Cl)NOCc1ccccc1 [Compound D8, N-(Benzyloxy)-2-(2,4-dichlorophenoxy)acetamide]
Tall Waterhemp (AMATA); 21 DAA, compound 560 g ae/ha + Sulfentrazone 130 g ai/ha, Trial Bridge 3
  % Control: 100%
Tall Waterhemp (AMATA); [2]
  % Control: 100%
Tall Waterhemp (AMATA); [3]
  % Control: 100% and 90%
Tall Waterhemp (AMATA); 21 DAA, compound 1120 g ae/ha + Sulfentrazone 130 g ai/ha, Trial Bridge 3
  % Control: 100%
Tall Waterhemp (AMATA); 21 DAA, compound 1120 g ae/ha + Sulfentrazone 347 g ai/ha, Trial Bridge 3
  % Control: 100%
Tall Waterhemp (AMATA); [4]
  % Control: 100%
Tall Waterhemp (AMATA); [5]
  % Control: 100%
Tall Waterhemp (AMATA); [6]
  % Control: 100%
Tall Waterhemp (AMATA); [7]
  % Control: 100%
Tall Waterhemp (AMATA); [8]
  % Control: 100%
Tall Waterhemp (AMATA); [9]
  % Control: 100% and 65% and 98%
Tall Waterhemp (AMATA); Trial Bridge 1, 21 DAA, compound 560 g ae/ha, mixing partner none
  % Control: 100%
Tall Waterhemp (AMATA); Trial Bridge 1, 21 DAA, compound 1120 g ae/ha + Arylex 5 g ai or ae/ha
  % Control: 100%
Tall Waterhemp (AMATA); [10]
  % Control: 100%
Tall Waterhemp (AMATA); [11]
  % Control: 100%
Tall Waterhemp (AMATA); Trial Bridge 1, 21 DAA, compound 1120 g ae/ha + Mesotrione 150 g ai or ae/ha
  % Control: 100%
Tall Waterhemp (AMATA); [12]
  % Control: 100%
Tall Waterhemp (AMATA); Trial Bridge 1, 21 DAA, compound 1120 g ae/ha, mixing partner none
  % Control: 100%
Tall Waterhemp (AMATA); Trial Bridge 2, 21 DAA, compound 560 g ae/ha + Saflufenacil 25 g ai or ae/ha
  % Control: 100%
Tall Waterhemp (AMATA); Trial Bridge 2, 21 DAA, compound 560 g ae/ha + Saflufenacil 75 g ai or ae/ha
  % Control: 100%
Tall Waterhemp (AMATA); [13]
  % Control: 100%
Tall Waterhemp (AMATA); Trial Bridge 2, 21 DAA, compound 560 g ae/ha + Trifludimoxazin 50 g ai or ae/ha
  % Control: 100%
Tall Waterhemp (AMATA); [14]
  % Control: 100% and 90%
Tall Waterhemp (AMATA); Trial Bridge 2, 21 DAA, compound 1120 g ae/ha + Saflufenacil 25 g ai or ae/ha
  % Control: 100%
Tall Waterhemp (AMATA); Trial Bridge 2, 21 DAA, compound 1120 g ae/ha + Saflufenacil 75 g ai or ae/ha
  % Control: 100%
Tall Waterhemp (AMATA); Trial Bridge 2, 21 DAA, compound 1120 g ae/ha + Trifludimoxazin 12.5 g ai or ae/ha
  % Control: 100%
Tall Waterhemp (AMATA); Trial Bridge 2, 21 DAA, compound 1120 g ae/ha + Trifludimoxazin 50 g ai or ae/ha
  % Control: 100%
Tall Waterhemp (AMATA); Trial Bridge 2, 21 DAA, compound 1120 g ae/ha, no mixing partner
  % Control: 100%
Corn (ZEAMX); 21 DAA, compound 560 g ae/ha + Sulfentrazone 130 g ai or ae/ha, Trial Bridge 3
  % Control: 75% and 65%
Corn (ZEAMX); 21 DAA, compound 560 g ae/ha + Sulfentrazone 347 g ai or ae/ha, Trial Bridge 3
  % Control: 55% and 75% and 60%
Corn (ZEAMX); [3]
  % Control: 5%
Corn (ZEAMX); 21 DAA, compound 1120 g ae/ha + Sulfentrazone 130 g ai or ae/ha, Trial Bridge 3
  % Control: 50% and 75% and 85%
Corn (ZEAMX); 21 DAA, compound 1120 g ae/ha + Sulfentrazone 347 g ai or ae/ha, Trial Bridge 3
  % Control: 85% and 65% and 75%
Corn (ZEAMX); [5]
  % Control: 5% and 15%
Corn (ZEAMX); [6]
  % Control: 30% and 15%
Corn (ZEAMX); [7]
  % Control: 70% and 65%
Corn (ZEAMX); [8]
  % Control: 5% and 10%
Corn (ZEAMX); [9]
  % Control: 60% and 55% and 50%
Corn (ZEAMX); Trial Bridge 1, 21 DAA, compound 560 g ae/ha, no mixing partner
  % Control: 10%
Corn (ZEAMX); [10]
  % Control: 70% and 40%
Corn (ZEAMX); [11]
  % Control: 70% and 65%
Corn (ZEAMX); [12]
  % Control: 55% and 60%
Corn (ZEAMX); Trial Bridge 1, 21 DAA, compound 1120 g ae/ha, no mixing partner
  % Control: 10%
Corn (ZEAMX); Trial Bridge 2, compound 560 g ae/ha + Saflufenacil 25 g ai or ae/ha, 21 DAA
  % Control: 70% and 40% and 55%
Corn (ZEAMX); Trial Bridge 2, compound 560 g ae/ha + Saflufenacil 75 g ai or ae/ha, 21 DAA
  % Control: 65% and 60% and 50%
Corn (ZEAMX); Trial Bridge 2, compound 560 g ae/ha + Trifludimoxazin 12.5 g ai or ae/ha, 21 DAA
  % Control: 20% and 15%
Corn (ZEAMX); Trial Bridge 2, compound 560 g ae/ha + Trifludimoxazin 50 g ai or ae/ha, 21 DAA
  % Control: 50% and 25% and 30%
Corn (ZEAMX); Trial Bridge 2, compound 560 g ae/ha, mixing partner none, 21 DAA
  % Control: 10%
Corn (ZEAMX); Trial Bridge 2, compound 1120 g ae/ha + Saflufenacil 25 g ai or ae/ha, 21 DAA
  % Control: 80% and 70% and 65%
Corn (ZEAMX); Trial Bridge 2, compound 1120 g ae/ha + Saflufenacil 75 g ai or ae/ha, 21 DAA
  % Control: 70% and 65% and 85%
Corn (ZEAMX); Trial Bridge 2, compound 1120 g ae/ha + Trifludimoxazin 12.5 g ai or ae/ha, 21 DAA
  % Control: 20% and 15%
Corn (ZEAMX); Trial Bridge 2, compound 1120 g ae/ha + Trifludimoxazin 50 g ai or ae/ha, 21 DAA
  % Control: 35% and 40% and 20%
Horseweed (ERICA); [15]
  % Control: 95%
Horseweed (ERICA); compound 560 g ae/ha + Sulfentrazone 347 g ai or ae/ha, Trial Bridge 3
  % Control: 100% and 98% and 97%
Horseweed (ERICA); compound 1120 g ae/ha + Sulfentrazone 130 g ai or ae/ha, Trial Bridge 3
  % Control: 95% and 99%
Horseweed (ERICA); compound 1120 g ae/ha + Sulfentrazone 347 g ai or ae/ha, Trial Bridge 3
  % Control: 95% and 85% and 98%
Horseweed (ERICA); Trial Bridge 1, compound 560 g ae/ha + Arylex 5 g ai or ae/ha, single replicate
  % Control: 90% (2×) and 95%
Horseweed (ERICA); Trial Bridge 1, compound 560 g ae/ha + Glufosinate 600 g ai or ae/ha, single replicate
  % Control: 100% and 90% and 85%
Horseweed (ERICA); Trial Bridge 1, compound 560 g ae/ha + Glyphosate 1120 g ai or ae/ha, single replicate
  % Control: 80% and 100%
Horseweed (ERICA); Trial Bridge 1, compound 560 g ae/ha + Mesotrione 150 g ai or ae/ha, single replicate
  % Control: 100% and 99% and 98%
Horseweed (ERICA); Trial Bridge 1, compound 560 g ae/ha + diclosulam 35 g ai or ae/ha, single replicate
  % Control: 100%
Horseweed (ERICA); Trial Bridge 1, compound 560 g ae/ha, no mixing partner, single replicate
  % Control: 95% and 90% (2×)
Horseweed (ERICA); Trial Bridge 1, compound 1120 g ae/ha + Arylex 5 g ai or ae/ha, single replicate
  % Control: 85% and 90% (2×)
Horseweed (ERICA); Trial Bridge 1, compound 1120 g ae/ha + Glufosinate 600 g ai or ae/ha, single replicate
  % Control: 100% (2×) and 98%
Horseweed (ERICA); Trial Bridge 1, compound 1120 g ae/ha + Glyphosate 1120 g ai or ae/ha, single replicate
  % Control: 95% and 90%
Horseweed (ERICA); Trial Bridge 1, compound 1120 g ae/ha + Mesotrione 150 g ai or ae/ha, single replicate
  % Control: 99% and 100% (2×)
Horseweed (ERICA); Trial Bridge 1, compound 1120 g ae/ha + diclosulam 35 g ai or ae/ha, single replicate
  % Control: 100%
Horseweed (ERICA); Trial Bridge 1, compound 1120 g ae/ha, no mixing partner, single replicate
  % Control: 100% and 90% (2×)
Horseweed (ERICA); Trial Bridge 2, compound 560 g ae/ha + Saflufenacil 25 g ai or ae/ha
  % Control: 100%
Horseweed (ERICA); Trial Bridge 2, compound 560 g ae/ha + Saflufenacil 75 g ai or ae/ha
  % Control: 100%
Horseweed (ERICA); Trial Bridge 2, compound 560 g ae/ha + Trifludimoxazin 12.5 g ai or ae/ha
  % Control: 80% and 97%
Horseweed (ERICA); Trial Bridge 2, compound 560 g ae/ha + Trifludimoxazin 50 g ai or ae/ha
  % Control: 95% and 90%
Horseweed (ERICA); Trial Bridge 2, compound 1120 g ae/ha + Saflufenacil 25 g ai or ae/ha
  % Control: 100% and 95%
Horseweed (ERICA); Trial Bridge 2, compound 1120 g ae/ha + Saflufenacil 75 g ai or ae/ha
  % Control: 100%
Horseweed (ERICA); Trial Bridge 2, compound 1120 g ae/ha + Trifludimoxazin 12.5 g ai or ae/ha
  % Control: 85% and 92%
Horseweed (ERICA); Trial Bridge 2, compound 1120 g ae/ha + Trifludimoxazin 50 g ai or ae/ha
  % Control: 60% and 80%
Horseweed (ERICA); Trial Bridge 2, compound 1120 g ae/ha, mixing partner none
  % Control: 97% and 100%
Horseweed (ERICA); Trial Bridge 3, compound 560 g ae/ha + Sulfentrazone 130 g ai/ha
  % Control: 97% and 85% and 95%
Horseweed (ERICA); [16]
  % Control: 95% and 90% and 80%
Horseweed (ERICA); Trial Bridge 3, compound 1120 g ae/ha + Sulfentrazone 130 g ai/ha
  % Control: 95%
Horseweed (ERICA); Trial Bridge 3, compound 1120 g ae/ha, no mixing partner
  % Control: 95% and 90%
[1]; [15]
  % Control: 95% and 100%
[1]; Trial Bridge 2, compound 1120 g ae/ha, no mixing partner
  % Control: 97%
[1]; Trial Bridge 1, compound 560 g ae/ha + Glufosinate 600 g ai or ae/ha
  % Control: 100% and 99%
[1]; Trial Bridge 1, compound 560 g ae/ha + Glyphosate 1120 g ai or ae/ha
  % Control: 100% and 98% and 95%
[1]; Trial Bridge 1, compound 560 g ae/ha + diclosulam 35 g ai or ae/ha
  % Control: 90% and 95%
[1]; Trial Bridge 1, compound 1120 g ae/ha + Arylex 5 g ai or ae/ha
  % Control: 100% and 88%
[1]; Trial Bridge 1, compound 1120 g ae/ha + Glyphosate 1120 g ai or ae/ha
  % Control: 95% and 100% and 97%
[1]; Trial Bridge 1, compound 1120 g ae/ha + diclosulam 35 g ai or ae/ha
  % Control: 95% and 100% and 90%
[1]; [16]
  % Control: 95%
[1]; Trial Bridge 3, compound 1120 g ae/ha + Sulfentrazone 347 g ai/ha
  % Control: 97% and 100%
Velvetleaf (ABUTH); [2]
  % Control: 99% and 100%
Velvetleaf (ABUTH); [3]
  % Control: 95% and 100%
Velvetleaf (ABUTH); [4]
  % Control: 97%
Velvetleaf (ABUTH); [6]
  % Control: 100% and 97%
Velvetleaf (ABUTH); [13]
  % Control: 100% and 99%
Velvetleaf (ABUTH); [14]
  % Control: 99%
